PubChem BioAssay AID1259424, University of Nebraska Medical Center | 2018
This is one part, drawn at random, of about 14,000 reagents. 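Higher correlation or smaller distance means closer resemblance to KSR1 loss; control wells, including KSR1 knockdowns, recur on many plates.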 Further read-outs or replicates are left out here. No sequences are given here. Not stated in the record: the time to read-out.

- Assay: 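Rank knockdowns across the genome by resemblance to the KSR1 depletion profile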 (primary screen)
- Cells: human HCT116 colon cancer cells
- Reagents: siRNA pool against human genes, 50 nM
- Detection: 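Six signature mRNAs by branched-DNA multiplex assay, scaled to two housekeeping genes and non-targeting median, log2; matched to mean KSR1 knockdown profile by Pearson correlation and euclidean distance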
- Scale: mean correlation with KSR1 profile: higher = expression change more like KSR1 knockdown

| gene knocked down | mean correlation with KSR1 profile |
| --- | --- |
| ZP4 | -0.437 |
| ZNF219 | -0.859 |
| ARPC3 | 0.246 |
| PLPP5 | -0.34 |
| FXYD4 | -0.439 |
| TUBB4B | 0.0783 |
| DOK3 | 0.0924 |
| THAP11 | -0.835 |
| CD99L2 | 0.588 |
| KIZ | -0.555 |
| ANP32A | -0.656 |
| CMSS1 | 0.773 |
| H2AC7 | -0.372 |
| FNBP1L | 0.209 |
| DELE1 | 0.157 |
| GNL3 | -0.228 |
| SBNO2 | 0.413 |
| PTPRN2 | -0.293 |
| OPN1MW | 0.302 |
| TUSC3 | 0.79 |
| EXO5 | -0.291 |
| ZSCAN9 | -0.254 |
| RGP1 | 0.851 |
| BEX4 | 0.323 |
| DDOST | 0.203 |
| LRCH2 | -0.434 |
| NBR2 | 0.352 |
| RSAD2 | -0.395 |
| ZBTB39 | 0.181 |
| CD63 | -0.349 |
| RETNLB | 0.578 |
| ACADM | 0.761 |
| GTF3C1 | 0.161 |
| TMEM87B | 0.509 |
| ENTPD3 | -0.24 |
| TRIM11 | 0.00899 |
| AKR7L | -0.254 |
| DPH1 | 0.00394 |
| HEATR5B | -0.876 |
| STXBP5L | -0.196 |
| KMT2C | -0.556 |
| WDR91 | -0.579 |
| RPL13 | 0.427 |
| ABCA5 | -0.4 |
| ZNF630 | -0.472 |
| RPS27A | 0.247 |
| ALG9 | 0.266 |
| MAP7D1 | 0.396 |
| TMPRSS15 | 0.406 |
| EIF4B | -0.683 |

Reformatted: results already given.
{"gene knocked down": "LRCH2", "mean correlation with KSR1 profile": -0.434}
{"gene knocked down": "NBR2", "mean correlation with KSR1 profile": 0.352}
{"gene knocked down": "RSAD2", "mean correlation with KSR1 profile": -0.395}
{"gene knocked down": "ZBTB39", "mean correlation with KSR1 profile": 0.181}
{"gene knocked down": "CD63", "mean correlation with KSR1 profile": -0.349}
{"gene knocked down": "RETNLB", "mean correlation with KSR1 profile": 0.578}
